Some results were stated once for a whole list of compounds, not compound by compound.
Test system: MCF-7 breast cancer cells
Experiment: Pharmacodynamic experiment in mouse models of human breast cancer (MCF-7 tumors)
Assay type: in vivo, NOD/SCID female mice
Details: low-dose group 3 mg/kg, once-daily oral gavage, day 28
Description: MCF-7 breast cancer cells were cultured in MEM medium containing 10% FBS, 0.01 mM NEAA, and 10 µg/mL insulin. MCF-7 cells in the exponential growth phase were collected and resuspended in PBS to a suitable concentration for subcutaneous injection into mice. The experimental animals were NOD/SCID female mice (purchased from GemPharmatech Co. Itd, Jiangsu). Before inoculation of tumor cells, a 0.36 mg/60-day slow-release estrogen tablet (17β-estradiol, Innovative Research of America, Sarasota, Florida, USA) was subcutaneously implanted on the right side of the back of the experimental animals. The day after estrogen tablet implantation, 2×10^7 MCF-7 cells were inoculated into the right mammary fatty pad of the experimental mice, wherein the cells were resuspended in PBS and Matrigel (1:1) (0.2 mL/mouse). The tumor growth was regularly observed.
When the tumors in the tumor-bearing mice grew to an average volume of approximately 245.56 mm^3, they were randomly grouped for administration based on tumor size. Grouping was performed using StudyDirector™ (version 3.1.399.19, supplier Studylog System, Inc., S. San Francisco, CA, USA). […]
After starting drug administration, the body weight and tumor size of mice were measured twice a week. […] The raw data were directly imported into the software after being measured using a balance and vernier caliper. […]

Structure (SMILES) | TGI (tumor growth inhibition)
O=C1CCC(N2Cc3cc(N4CC5(CCN(CC6CCN(c7c(F)cc([C@@H]8c9ccc(O)cc9OC[C@@H]8c8c(F)cccc8F)cc7F)CC6)CC5)C4)ccc3C2=O)C(=O)N1 (some centres unmarked) [Example 40] | 29%-30%
O=C1CCC(N2Cc3cc(N4CC5(CCN(CC6CCN(c7ccc([C@@H]8c9ccc(O)cc9OC[C@@H]8c8c(F)cccc8F)cc7F)CC6)CC5)C4)ccc3C2=O)C(=O)N1 (stereo partly drawn) [Example 70, 3-(5-(7-((1-(4-((3S,4R)-3-(2,6-difluorophenyl)-7-hydroxychroman-4-yl)-2-fluorophenyl)piperidin-4-yl)methyl)-2,7-diazaspiro[3.5]nonane-2-yl)-1-oxoisoinodolin-2-yl)piperidin-2,6-dione] | 29%-30%
